Data published in US8211875B2, “Local treatment of neurofibromas” (Nexgenix Pharmaceuticals Inc, priority 2005, dated 2012).
Some results were stated once for a whole list of compounds, not compound by compound.

Each compound was assayed on human DNF xenograft (assay: Mouse dermal neurofibroma (DNF) xenograft model, tumor burden reduction). Conditions: intralesional, twice weekly for 4 weeks; SCID mice with human DNF fragments; either criterion met.
Assay type: in vivo

SMILES | “+” in tumor weight measurement or histological score of “+” or more
O=c1[nH]cc(F)c(=O)[nH]1 [5-fluorouracil] | + (The result of a certain dose of the compound is considered to be “+” when the difference in tumor weight is statistically significant (p<0.05))
C=CCNC1=C2C[C@@H](C)C[C@H](OC)[C@H](O)[C@@H](C)/C=C(\C)[C@H](OC(N)=O)[C@@H](OC)/C=C\C=C(/C)C(=O)NC(=CC1=O)C2=O [17-AAG, 17-(Allylamino)-17-demethoxygeldanamycin] | + (The result of a certain dose of the compound is considered to be “+” when the difference in tumor weight is statistically significant (p<0.05))
O=C([O-])Cc1ccccc1Nc1c(Cl)cccc1Cl.[Na+] [Diclofenac] | + (The result of a certain dose of the compound is considered to be “+” when the difference in tumor weight is statistically significant (p<0.05))
C[C@H]1c2cccc(O)c2C(=O)C2=C(O)[C@]3(O)C(=O)C(C(N)=O)=C(O)[C@@H](N(C)C)[C@@H]3[C@@H](O)[C@@H]21.Cl [Doxycycline] | + (The result of a certain dose of the compound is considered to be “+” when the difference in tumor weight is statistically significant (p<0.05))
CC1=C(/C=C/C(C)=C/C=C/C(C)=C/C(=O)Nc2ccc(O)cc2)C(C)(C)CCC1 [Fenretinide] | + (The result of a certain dose of the compound is considered to be “+” when the difference in tumor weight is statistically significant (p<0.05))
COC(=O)Nc1nc2cc(C(=O)c3ccccc3)ccc2[nH]1 [Mebendazole] | + (The result of a certain dose of the compound is considered to be “+” when the difference in tumor weight is statistically significant (p<0.05))
CC(/C=C/C(=O)NO)=C\[C@@H](C)C(=O)c1ccc(N(C)C)cc1 [Tricostatin A] | + (The result of a certain dose of the compound is considered to be “+” when the difference in tumor weight is statistically significant (p<0.05))
CCCC(CCC)C(=O)O [Valproic acid] | + (The result of a certain dose of the compound is considered to be “+” when the difference in tumor weight is statistically significant (p<0.05))
CCCCCCCCCCCCCCCCOP(=O)([O-])OCC[N+](C)(C)C [miltefosine, Miltefosine] | + (The result of a certain dose of the compound is considered to be “+” when the difference in tumor weight is statistically significant (p<0.05))
C[C@@H]1C[C@H]2O[C@@H]2/C=C\C=C\C(=O)Cc2c(Cl)c(O)cc(O)c2C(=O)O1 [radicicol, Radicicol] | + (The result of a certain dose of the compound is considered to be “+” when the difference in tumor weight is statistically significant (p<0.05))
